From the supplement of paper PMC10849652
The other results are listed elsewhere or left out.

Chains of the proteins cited; added tags and fusions are not shown. Lines headed by an entry give the natural chain unless they say otherwise; changes in a name come on top.
UniProt O14656: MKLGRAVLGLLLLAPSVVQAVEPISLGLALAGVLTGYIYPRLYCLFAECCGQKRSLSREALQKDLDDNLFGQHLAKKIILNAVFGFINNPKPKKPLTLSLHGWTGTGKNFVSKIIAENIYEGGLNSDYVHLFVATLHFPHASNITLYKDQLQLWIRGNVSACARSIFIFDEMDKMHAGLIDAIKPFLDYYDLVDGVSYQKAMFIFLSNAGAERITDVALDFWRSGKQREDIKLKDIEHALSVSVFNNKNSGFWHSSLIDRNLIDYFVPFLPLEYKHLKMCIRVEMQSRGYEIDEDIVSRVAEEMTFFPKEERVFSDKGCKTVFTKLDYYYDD
UniProt Q9Y5L0: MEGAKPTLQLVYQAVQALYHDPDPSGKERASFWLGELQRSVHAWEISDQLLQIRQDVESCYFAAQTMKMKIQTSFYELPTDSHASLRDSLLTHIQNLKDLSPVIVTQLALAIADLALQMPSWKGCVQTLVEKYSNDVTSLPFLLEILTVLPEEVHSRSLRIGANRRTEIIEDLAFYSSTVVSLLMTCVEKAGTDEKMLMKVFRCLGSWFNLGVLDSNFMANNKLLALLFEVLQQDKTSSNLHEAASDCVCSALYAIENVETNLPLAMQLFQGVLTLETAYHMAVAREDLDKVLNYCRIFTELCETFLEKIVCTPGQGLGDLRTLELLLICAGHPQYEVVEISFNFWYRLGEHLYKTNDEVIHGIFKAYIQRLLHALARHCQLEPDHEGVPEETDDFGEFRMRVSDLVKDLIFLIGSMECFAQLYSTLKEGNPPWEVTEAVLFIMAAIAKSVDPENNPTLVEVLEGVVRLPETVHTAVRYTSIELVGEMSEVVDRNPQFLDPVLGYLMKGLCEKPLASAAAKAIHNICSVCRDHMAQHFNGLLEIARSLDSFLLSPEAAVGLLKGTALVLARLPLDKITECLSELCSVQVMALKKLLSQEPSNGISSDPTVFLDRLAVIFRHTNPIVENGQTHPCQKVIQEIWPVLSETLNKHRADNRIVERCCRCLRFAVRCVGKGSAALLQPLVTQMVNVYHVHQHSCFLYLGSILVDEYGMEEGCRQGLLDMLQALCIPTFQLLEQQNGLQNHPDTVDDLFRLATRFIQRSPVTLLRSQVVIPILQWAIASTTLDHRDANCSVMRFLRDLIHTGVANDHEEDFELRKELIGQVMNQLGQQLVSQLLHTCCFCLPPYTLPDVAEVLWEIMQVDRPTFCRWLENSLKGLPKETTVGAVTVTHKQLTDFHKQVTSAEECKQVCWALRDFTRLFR
UniProt Q9H497: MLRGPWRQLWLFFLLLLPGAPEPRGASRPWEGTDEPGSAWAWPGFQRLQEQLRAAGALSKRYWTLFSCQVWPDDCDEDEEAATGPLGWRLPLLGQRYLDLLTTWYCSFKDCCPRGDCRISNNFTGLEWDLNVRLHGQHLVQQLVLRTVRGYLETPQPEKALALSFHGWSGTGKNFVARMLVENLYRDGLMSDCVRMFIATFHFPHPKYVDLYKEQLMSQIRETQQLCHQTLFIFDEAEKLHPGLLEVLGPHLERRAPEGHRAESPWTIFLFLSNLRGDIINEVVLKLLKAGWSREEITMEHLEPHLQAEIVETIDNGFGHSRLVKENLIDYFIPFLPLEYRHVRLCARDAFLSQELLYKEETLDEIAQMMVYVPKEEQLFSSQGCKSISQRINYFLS
UniProt Q9NXH8: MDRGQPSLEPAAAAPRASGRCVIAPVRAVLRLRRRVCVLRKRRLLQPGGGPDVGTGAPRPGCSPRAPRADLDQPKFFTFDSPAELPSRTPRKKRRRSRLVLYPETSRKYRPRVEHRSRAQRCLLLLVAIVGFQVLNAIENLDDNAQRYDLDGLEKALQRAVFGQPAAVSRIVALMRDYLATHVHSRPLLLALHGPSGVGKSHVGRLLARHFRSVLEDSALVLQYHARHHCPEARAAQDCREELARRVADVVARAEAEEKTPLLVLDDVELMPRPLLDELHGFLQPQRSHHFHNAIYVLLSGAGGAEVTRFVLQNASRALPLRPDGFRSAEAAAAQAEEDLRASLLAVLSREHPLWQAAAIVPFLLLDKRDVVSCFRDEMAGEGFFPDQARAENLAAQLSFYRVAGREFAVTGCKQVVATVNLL
UniProt Q8NCE0: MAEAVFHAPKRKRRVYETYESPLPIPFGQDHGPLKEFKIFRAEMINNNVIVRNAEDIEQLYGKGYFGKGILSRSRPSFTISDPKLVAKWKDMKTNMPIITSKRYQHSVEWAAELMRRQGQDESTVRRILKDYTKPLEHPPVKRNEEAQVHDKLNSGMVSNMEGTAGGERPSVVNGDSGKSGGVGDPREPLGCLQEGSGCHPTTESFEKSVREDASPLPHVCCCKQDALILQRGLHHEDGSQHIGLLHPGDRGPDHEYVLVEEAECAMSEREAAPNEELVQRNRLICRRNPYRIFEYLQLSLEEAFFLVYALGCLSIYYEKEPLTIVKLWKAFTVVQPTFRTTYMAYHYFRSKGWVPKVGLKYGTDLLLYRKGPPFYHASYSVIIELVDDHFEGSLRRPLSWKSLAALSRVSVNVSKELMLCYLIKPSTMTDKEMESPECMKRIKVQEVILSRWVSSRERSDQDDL
UniProt A5PLN9: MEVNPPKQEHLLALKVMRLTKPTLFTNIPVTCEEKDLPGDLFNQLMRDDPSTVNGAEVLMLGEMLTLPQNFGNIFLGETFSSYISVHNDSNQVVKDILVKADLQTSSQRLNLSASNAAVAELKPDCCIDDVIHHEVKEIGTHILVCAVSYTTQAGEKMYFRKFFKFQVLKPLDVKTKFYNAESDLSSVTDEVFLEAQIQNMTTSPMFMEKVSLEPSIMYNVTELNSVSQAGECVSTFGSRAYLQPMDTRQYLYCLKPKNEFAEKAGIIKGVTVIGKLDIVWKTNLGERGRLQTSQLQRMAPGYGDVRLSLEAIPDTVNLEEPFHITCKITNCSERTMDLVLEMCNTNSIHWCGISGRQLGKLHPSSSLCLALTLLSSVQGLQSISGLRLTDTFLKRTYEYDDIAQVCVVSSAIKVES
UniProt Q9Y4K3: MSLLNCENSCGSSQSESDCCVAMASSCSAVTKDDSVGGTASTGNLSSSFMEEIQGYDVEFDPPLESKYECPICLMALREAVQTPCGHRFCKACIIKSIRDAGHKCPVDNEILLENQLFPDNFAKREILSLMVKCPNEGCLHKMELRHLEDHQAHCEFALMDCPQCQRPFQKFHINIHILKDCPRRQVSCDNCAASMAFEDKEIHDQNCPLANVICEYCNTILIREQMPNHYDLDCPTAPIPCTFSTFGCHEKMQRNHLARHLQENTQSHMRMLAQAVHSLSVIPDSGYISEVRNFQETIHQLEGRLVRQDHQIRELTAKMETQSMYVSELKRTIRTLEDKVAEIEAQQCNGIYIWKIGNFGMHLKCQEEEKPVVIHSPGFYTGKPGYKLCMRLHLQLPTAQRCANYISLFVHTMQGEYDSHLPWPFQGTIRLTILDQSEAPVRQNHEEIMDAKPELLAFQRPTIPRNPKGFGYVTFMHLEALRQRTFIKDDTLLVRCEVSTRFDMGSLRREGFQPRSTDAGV
UniProt P02585, whole entry, looked up: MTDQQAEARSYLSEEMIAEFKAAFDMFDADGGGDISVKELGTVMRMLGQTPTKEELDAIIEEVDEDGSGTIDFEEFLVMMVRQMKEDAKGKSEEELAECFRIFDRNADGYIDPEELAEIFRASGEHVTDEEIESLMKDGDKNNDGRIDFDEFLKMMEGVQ
UniProt P67936, whole entry, looked up: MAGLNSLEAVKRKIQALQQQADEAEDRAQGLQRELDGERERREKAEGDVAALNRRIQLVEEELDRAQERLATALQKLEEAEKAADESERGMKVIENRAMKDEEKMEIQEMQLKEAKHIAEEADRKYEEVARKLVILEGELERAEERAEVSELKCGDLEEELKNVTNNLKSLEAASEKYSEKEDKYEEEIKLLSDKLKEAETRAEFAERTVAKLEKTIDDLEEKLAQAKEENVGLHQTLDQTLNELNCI
UniProt O94842: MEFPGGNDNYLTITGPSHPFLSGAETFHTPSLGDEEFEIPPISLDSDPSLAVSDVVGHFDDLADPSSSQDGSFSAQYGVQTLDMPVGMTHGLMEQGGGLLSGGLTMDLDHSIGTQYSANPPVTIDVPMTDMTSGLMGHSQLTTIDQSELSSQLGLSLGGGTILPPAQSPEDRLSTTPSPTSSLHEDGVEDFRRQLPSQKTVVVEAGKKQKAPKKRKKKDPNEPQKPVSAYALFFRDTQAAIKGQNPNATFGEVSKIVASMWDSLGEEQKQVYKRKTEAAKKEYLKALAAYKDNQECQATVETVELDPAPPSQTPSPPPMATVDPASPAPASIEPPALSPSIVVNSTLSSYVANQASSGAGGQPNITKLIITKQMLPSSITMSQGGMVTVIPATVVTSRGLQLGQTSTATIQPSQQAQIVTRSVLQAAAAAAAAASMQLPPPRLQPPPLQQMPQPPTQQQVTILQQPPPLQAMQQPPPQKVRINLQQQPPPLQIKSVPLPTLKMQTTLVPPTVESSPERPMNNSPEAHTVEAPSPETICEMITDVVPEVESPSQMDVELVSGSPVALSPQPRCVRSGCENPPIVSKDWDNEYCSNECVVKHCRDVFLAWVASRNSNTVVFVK
UniProt Q9Y5S1: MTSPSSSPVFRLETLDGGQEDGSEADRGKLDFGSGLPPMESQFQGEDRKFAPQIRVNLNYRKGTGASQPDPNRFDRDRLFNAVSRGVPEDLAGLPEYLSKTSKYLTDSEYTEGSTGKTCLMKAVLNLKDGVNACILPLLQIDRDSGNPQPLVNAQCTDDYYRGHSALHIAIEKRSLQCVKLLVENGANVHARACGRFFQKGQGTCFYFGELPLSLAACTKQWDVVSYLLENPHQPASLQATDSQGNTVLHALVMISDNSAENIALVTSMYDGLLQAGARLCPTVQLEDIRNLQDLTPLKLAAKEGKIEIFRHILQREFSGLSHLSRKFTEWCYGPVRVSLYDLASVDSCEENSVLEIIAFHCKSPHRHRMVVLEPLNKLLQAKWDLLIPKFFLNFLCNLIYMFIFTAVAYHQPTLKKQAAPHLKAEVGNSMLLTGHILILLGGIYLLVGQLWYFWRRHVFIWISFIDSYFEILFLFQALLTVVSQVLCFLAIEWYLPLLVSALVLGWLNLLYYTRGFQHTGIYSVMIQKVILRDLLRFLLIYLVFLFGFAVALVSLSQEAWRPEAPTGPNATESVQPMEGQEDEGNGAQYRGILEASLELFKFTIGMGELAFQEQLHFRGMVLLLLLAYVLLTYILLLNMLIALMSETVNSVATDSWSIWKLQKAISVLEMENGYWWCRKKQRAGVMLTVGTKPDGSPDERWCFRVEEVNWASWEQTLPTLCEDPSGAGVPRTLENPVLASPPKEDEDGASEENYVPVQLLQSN
UniProt O14787: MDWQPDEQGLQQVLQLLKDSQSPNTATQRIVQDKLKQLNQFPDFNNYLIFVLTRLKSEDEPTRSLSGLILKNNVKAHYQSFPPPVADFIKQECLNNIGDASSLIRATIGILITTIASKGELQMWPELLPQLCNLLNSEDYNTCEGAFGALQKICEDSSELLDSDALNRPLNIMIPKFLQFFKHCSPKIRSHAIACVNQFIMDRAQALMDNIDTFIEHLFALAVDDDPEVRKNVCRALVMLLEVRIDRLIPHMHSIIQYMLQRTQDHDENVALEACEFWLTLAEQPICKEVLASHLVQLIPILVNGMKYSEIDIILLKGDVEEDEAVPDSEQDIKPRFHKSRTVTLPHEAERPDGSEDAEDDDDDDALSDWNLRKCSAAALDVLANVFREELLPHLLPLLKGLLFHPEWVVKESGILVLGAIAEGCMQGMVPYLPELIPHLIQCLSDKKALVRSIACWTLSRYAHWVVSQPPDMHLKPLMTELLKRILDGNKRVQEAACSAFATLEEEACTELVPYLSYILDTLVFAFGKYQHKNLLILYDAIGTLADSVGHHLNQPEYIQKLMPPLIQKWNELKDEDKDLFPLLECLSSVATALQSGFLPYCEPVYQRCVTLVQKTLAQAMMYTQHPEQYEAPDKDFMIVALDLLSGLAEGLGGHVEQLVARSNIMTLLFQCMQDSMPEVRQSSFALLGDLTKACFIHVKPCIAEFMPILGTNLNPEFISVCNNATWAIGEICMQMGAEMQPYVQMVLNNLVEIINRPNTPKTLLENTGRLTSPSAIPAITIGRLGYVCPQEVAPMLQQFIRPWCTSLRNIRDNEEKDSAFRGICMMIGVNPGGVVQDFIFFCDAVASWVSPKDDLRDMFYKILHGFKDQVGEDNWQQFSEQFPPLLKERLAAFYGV
UniProt P06753, whole entry, looked up: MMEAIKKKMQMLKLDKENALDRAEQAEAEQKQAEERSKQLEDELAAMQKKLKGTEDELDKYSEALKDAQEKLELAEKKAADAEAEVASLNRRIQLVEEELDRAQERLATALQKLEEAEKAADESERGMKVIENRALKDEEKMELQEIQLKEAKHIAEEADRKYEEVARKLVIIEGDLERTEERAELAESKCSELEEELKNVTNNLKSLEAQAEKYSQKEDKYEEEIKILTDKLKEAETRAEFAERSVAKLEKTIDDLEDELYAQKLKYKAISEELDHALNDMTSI

Tests used:
Experiment in all cases: log2 fold change, soluble protein after heating vs DMSO (PISA); higher = thermal stabilisation; K562 cells, 10 uM, 30 min; active = over 0.2 and 3.5 SD of the protein, either way, in both replicates (recomputed)
[1] = compound: CC1=C(C=C(C=C1)NC(=O)C2=CC(=CC=C2)C(C)(C)C#N)NC3=CC4=C(C=C3)N=CN(C4=O)C
Summary of the method: (§1)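 K562 cells at 2×10^6 cells/mL were exposed to 10 μM compound for 30 min, then aliquots were heated for 3 min across 48°C-58°C, pooled, and extracted in PBS containing 0.5% NP-40 at 4°C. The supernatant after 21,000xg for 90 min was taken as soluble protein and measured by TMTpro 16plex LC-MS/MS with channel sums equalised. Thermal stability is reported relative to control samples, with values from duplicates. Fold changes are given on a log2 scale.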

[2] = compound: CC1=C(C=C(C=C1)NC(=O)C2=CC(=CC=C2)N(C)C)NC(=O)C3=CC=C(C=C3)O
Summary of the method: as §1

[3] = compound: CC1=CC=C(C=C1)SC2=C3C=C(SC3=CN=C2)C(=O)N
Summary of the method: as §1

[4] = compound: CC1=NC(=CC=C1)C2=C(N=C(N2)C(C)(C)C)C3=CC4=NC=CN=C4C=C3
Summary of the method: as §1

Nexturastat A = compound: CCCCN(Cc1ccc(C(=O)NO)cc1)C(=O)Nc1ccccc1 [Nexturastat A]
Summary of the method: as §1

vemurafenib = compound: CCCS(=O)(=O)Nc1ccc(F)c(C(=O)c2c[nH]c3ncc(-c4ccc(Cl)cc4)cc23)c1F [vemurafenib]
Summary of the method: as §1

[5] = compound: CCCS(=O)(=O)Nc1ccc(F)c(C(=O)c2c[nH]c3ncc(Cl)cc23)c1F
Summary of the method: as §1

[6] = compound: CCCc1cc(C)[nH]c(=O)c1CNC(=O)c1cc(-c2ccnc(N3CCN(C)CC3)c2)cc2c1cnn2C(C)C
Summary of the method: as §1

givinostat = compound: CCN(CC)Cc1ccc2cc(COC(=O)Nc3ccc(C(=O)NO)cc3)ccc2c1 [givinostat]
Summary of the method: as §1

barasertib = compound: CCN(CCCOc1ccc2c(Nc3cc(CC(=O)Nc4cccc(F)c4)[nH]n3)ncnc2c1)CCOP(=O)(O)O [barasertib]
Summary of the method: as §1

Target	log2 fold change [1]	log2 fold change [2]	log2 fold change [3]	log2 fold change [4]	log2 fold change (Nexturastat A)	log2 fold change (vemurafenib)	log2 fold change [5]	log2 fold change [6]	log2 fold change (givinostat)	log2 fold change (barasertib)
TRUB1 (UniProt Q8WWH5)	inactive: -0.013	inactive: 0.003	inactive: -0.009	inactive: 0.049	inactive: -0.025	inactive: 0.08	inactive: 0.025	inactive: -0.067	inactive: -0.006	inactive: -0.006
TP53BP1 isoform 2 (UniProt Q12888)	inactive: -0.02	inactive: -0.032	inactive: 0	inactive: -0.022	inactive: 0.045	inactive: 0	inactive: 0.02	inactive: 0.056	inactive: 0.019	inactive: 0.022
TRA2B (UniProt P62995)	inactive: -0.033	inactive: 0.098	inactive: -0.054	inactive: -0.126	inactive: 0.241	inactive: -0.076	inactive: -0.077	inactive: 0.065	inactive: -0.007	inactive: -0.165
TRIP10 (UniProt Q15642)	inactive: 0.003	inactive: -0.026	inactive: -0.009	inactive: -0.045	inactive: 0.139	inactive: 0.08	inactive: 0.026	inactive: -0.012	inactive: -0.058	inactive: 0.015
TOR1A (UniProt O14656)	inactive: -0.023	inactive: 0.011	inactive: -0.01	inactive: -0.02	inactive: -0.011	inactive: -0.007	inactive: -0.018	inactive: -0.088	inactive: -0.026	inactive: 0.004
TRIM33 (UniProt Q9UPN9)	inactive: -0.249	inactive: -0.041	inactive: 0.049	inactive: -0.029	inactive: 0.025	inactive: 0.027	inactive: 0.03	inactive: 0.038	inactive: 0.145	inactive: 0.016
TRABD (UniProt Q9H4I3)	inactive: 0.014	inactive: -0.017	inactive: -0.005	inactive: -0.133	inactive: -0.03	inactive: 0.125	inactive: -0.06	inactive: 0.147	inactive: -0.041	inactive: 0.031
TRAPPC9 isoform 2 (UniProt Q96Q05)	inactive: 0.048	inactive: -0.016	inactive: -0.039	inactive: -0.007	inactive: 0.045	inactive: -0.01	inactive: 0.008	inactive: -0.019	inactive: 0.021	inactive: 0.016
TNPO3 (UniProt Q9Y5L0)	inactive: 0.028	inactive: 0.004	inactive: 0.057	inactive: 0.003	inactive: -0.036	inactive: 0.069	inactive: 0.08	inactive: 0.003	inactive: 0.029	inactive: 0.019
TOR3A (UniProt Q9H497)	inactive: -0.027	inactive: 0.012	inactive: 0.007	inactive: -0.033	inactive: 0.006	inactive: -0.043	inactive: -0.001	inactive: -0.007	inactive: 0.023	inactive: 0.021
TRAF2 (UniProt Q12933)	inactive: 0.024	inactive: -0.008	inactive: 0.036	inactive: 0.009	inactive: -0.049	inactive: 0.031	inactive: 0.034	inactive: -0.04	inactive: -0.014	inactive: 0.007
TOR4A (UniProt Q9NXH8)	inactive: 0	inactive: -0.018	inactive: -0.013	inactive: -0.022	inactive: 0.075	inactive: 0.048	inactive: -0.043	inactive: 0.081	inactive: 0.097	inactive: -0.022
TSEN2 (UniProt Q8NCE0)	active: 0.306	inactive: 0.015	inactive: 0.014	inactive: -0.02	inactive: -0.013	inactive: 0.058	inactive: 0.063	inactive: 0.097	inactive: 0.012	inactive: 0.073
TRMT11 (UniProt Q7Z4G4)	inactive: -0.072	inactive: 0.017	inactive: 0.007	inactive: 0.037	inactive: -0.07	inactive: 0.012	inactive: 0.038	inactive: -0.003	inactive: 0.004	inactive: 0.021
TRAPPC5 (UniProt Q8IUR0)	inactive: -0.01	inactive: -0.037	inactive: 0.047	inactive: -0.007	inactive: -0.113	inactive: 0.04	inactive: 0.082	inactive: 0.001	inactive: 0.016	inactive: 0.077
TRAPPC13 isoform 5 (UniProt A5PLN9)	inactive: 0.022	inactive: 0.008	inactive: 0.006	inactive: 0.043	inactive: 0.024	inactive: 0.074	inactive: 0.113	inactive: 0.095	inactive: 0.025	inactive: 0.002
TRAF6 (UniProt Q9Y4K3)	inactive: -0.048	inactive: -0.071	inactive: 0.073	inactive: -0.083	inactive: 0.127	inactive: 0.017	inactive: 0.003	inactive: -0.005	inactive: 0.013	inactive: -0.002
TNNC2 (UniProt P02585)	inactive: -0.064	inactive: 0.037	inactive: 0.002	inactive: -0.024	inactive: -0.011	inactive: 0	inactive: -0.016	inactive: -0.045	inactive: -0.037	inactive: -0.004
TPM4 isoform 2 (UniProt P67936)	inactive: 0.101	inactive: 0.033	inactive: 0.081	inactive: 0.04	inactive: -0.102	inactive: 0.137	inactive: 0.213	inactive: -0.079	inactive: -0.083	inactive: 0.021
TPRKB (UniProt Q9Y3C4)	inactive: 0.03	inactive: 0.002	inactive: 0.02	inactive: 0.016	inactive: -0.003	inactive: -0.036	inactive: -0.019	inactive: -0.025	inactive: -0.062	inactive: 0.025
TOX4 (UniProt O94842)	inactive: -0.032	inactive: -0.031	inactive: -0.085	inactive: -0.101	inactive: 0.249	inactive: 0	inactive: -0.109	inactive: 0.04	inactive: -0.099	inactive: -0.014
TSC22D2 (UniProt O75157)	inactive: 0.046	inactive: -0.061	inactive: 0.035	inactive: 0.01	inactive: 0.021	inactive: 0.018	inactive: -0.088	inactive: -0.004	inactive: 0.012	inactive: -0.025
TOR1B (UniProt O14657)	inactive: -0.053	inactive: -0.015	inactive: -0.001	inactive: -0.028	inactive: -0.006	inactive: -0.03	inactive: -0.035	inactive: -0.066	inactive: 0.025	inactive: -0.013
TRPV2 (UniProt Q9Y5S1)	inactive: 0.034	inactive: 0.021	inactive: -0.031	inactive: -0.009	inactive: -0.064	inactive: 0.01	inactive: -0.013	inactive: -0.054	inactive: -0.044	inactive: 0.001
TNPO2 (UniProt O14787)	inactive: 0.052	inactive: -0.01	inactive: 0.073	inactive: 0.015	inactive: 0.021	inactive: 0.061	inactive: 0.11	inactive: 0.007	inactive: 0.083	inactive: 0.054
TRAPPC12 (UniProt Q8WVT3)	inactive: 0.09	inactive: -0.042	inactive: -0.006	inactive: -0.032	inactive: 0.026	inactive: 0.086	inactive: 0.056	inactive: 0.016	inactive: 0.028	inactive: 0.011
TNKS1BP1 (UniProt Q9C0C2)	inactive: -0.051	inactive: -0.014	inactive: -0.015	inactive: -0.042	inactive: 0.03	inactive: 0.015	inactive: -0.023	inactive: -0.025	inactive: -0.028	inactive: -0.02
TPD52L2 isoform 7 (UniProt O43399)	inactive: 0.001	inactive: 0.005	inactive: 0.019	inactive: -0.012	inactive: -0.046	inactive: -0.016	inactive: 0.007	inactive: -0.03	inactive: -0.016	inactive: -0.016
TPM3 isoform 2 (UniProt P06753)	inactive: 0.016	inactive: -0.012	inactive: -0.09	inactive: 0.01	inactive: -0.03	inactive: -0.031	inactive: -0.06	inactive: -0.019	inactive: -0.105	inactive: 0.037
TRMT2A (UniProt Q8IZ69)	inactive: 0.083	inactive: -0.02	inactive: -0.009	inactive: 0.005	inactive: 0.013	inactive: 0.022	inactive: -0.032	inactive: 0.085	inactive: -0.123	inactive: -0.003

In a second layout: entries from further up
Target,log2 fold change [1],log2 fold change [2],log2 fold change [3],log2 fold change [4],log2 fold change (Nexturastat A),log2 fold change (vemurafenib),log2 fold change [5],log2 fold change [6],log2 fold change (givinostat),log2 fold change (barasertib)
TSEN2 (UniProt Q8NCE0),active: 0.306,inactive: 0.015,inactive: 0.014,inactive: -0.02,inactive: -0.013,inactive: 0.058,inactive: 0.063,inactive: 0.097,inactive: 0.012,inactive: 0.073
TRAPPC5 (UniProt Q8IUR0),inactive: -0.01,inactive: -0.037,inactive: 0.047,inactive: -0.007,inactive: -0.113,inactive: 0.04,inactive: 0.082,inactive: 0.001,inactive: 0.016,inactive: 0.077
